# Experimental data as given in patent US7982018B2, “Modified corticotropin releasing factor peptides and uses thereof” (Conjuchem, LLC, priority 2006, dated 2011).
# Some of these results come from one statement about several compounds together. Some ranges recur; such a range may be that of the whole group of compounds.
# System: Male C57BL/6 mice
# Assay: Food intake in mice after a single intravenous injection of urocortin derivatives
# Type: in vivo
# Conditions: Study No. 1, FIG. 1, normal mice, 85 nmol/kg
# Method: The potency of several modified urocortin derivatives were determined by measuring food intake in mice. A study was performed with native human urocortin 1, 2 and 3 to select a dose and to determine whether the IV route was adequate for native peptides. Following the initial study, two additional studies were performed in which the effect of modified derivatives and native peptides were compared.
# Male C57BL/6 mice (22-26g) were housed 3 per cage and fed with standard chow. The night before dosing, mice were food restricted i.e., they were given only half of the amount of food ingested during the previous night. Dosing was performed between 9 and 10 a.m. Mice received a single intravenous injection (5 ml/kg via the tail vein) of saline or urocortin derivatives diluted in saline. Food intake was measured by placing preweighed pellets in the cage and weighing the uneaten pellets at 1, 2, 4, 6, 24 and 48 hours postdose.
row,Substance,time over which food intake was reduced/inhibited postdose [h]
1,"(MPA-AEEA) IVLSLDVPIGLLQILLEQARARAAREQATTNARILARV-NH2 (IVLSLDVPIGLLQILLEQARARAAREQATTNARILARV; N-terminal MPA-AEEA, C-terminal amide) [SEQ ID No. 81, Modified peptide of human urocortin 2]",4 to 6
2,"IVLSL DVPIG LLQIL LEQAK-(ε-AEEA-MPA) ARAAR EQATT NARIL ARV-NH2 (IVLSLDVPIGLLQILLEQAKARAAREQATTNARILARV; Lys-AEEA-MPA, C-terminal amide) [SEQ ID No. 82, Modified peptide of human urocortin 2]",4 to 6
3,"IVLSLDVPIGLLQILLEQARAK-(ε-AEEA-MPA) AAR EQATT NARIL ARV-NH2 (IVLSLDVPIGLLQILLEQARAKAAREQATTNARILARV; Lys-AEEA-MPA, C-terminal amide) [SEQ ID No. 83, Modified peptide of human urocortin 2]",4 to 6
4,"IVLSLDVPIGLLQILLEQARARAAK-(ε-AEEA-MPA) EQATT NARIL ARV-NH2 (IVLSLDVPIGLLQILLEQARARAAKEQATTNARILARV; Lys-AEEA-MPA, C-terminal amide) [SEQ ID No. 84, Modified peptide of human urocortin 2]",4 to 6
